Reference: article doi:10.1101/2025.07.31.668009

What was measured:
[1] = target: T1, ERL1CD (cytoplasmic domain of ERECTA-LIKE 1), BiFC fusion (Arabidopsis) (UniProt C0LGW6); test: split reporter
T1 sequence: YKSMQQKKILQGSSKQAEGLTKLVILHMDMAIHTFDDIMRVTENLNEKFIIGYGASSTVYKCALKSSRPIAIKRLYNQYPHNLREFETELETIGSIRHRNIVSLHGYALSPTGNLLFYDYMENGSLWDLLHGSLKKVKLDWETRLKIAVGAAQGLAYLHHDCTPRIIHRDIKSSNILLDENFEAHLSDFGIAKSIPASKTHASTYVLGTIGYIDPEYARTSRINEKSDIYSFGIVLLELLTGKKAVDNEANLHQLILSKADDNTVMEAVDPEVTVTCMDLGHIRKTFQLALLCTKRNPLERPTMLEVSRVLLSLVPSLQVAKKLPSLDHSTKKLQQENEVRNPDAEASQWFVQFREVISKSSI

[2] = target: T2, ERECTACD (cytoplasmic domain of ERECTA), BiFC fusion (Arabidopsis) (UniProt Q42371); test: split reporter
T2 sequence: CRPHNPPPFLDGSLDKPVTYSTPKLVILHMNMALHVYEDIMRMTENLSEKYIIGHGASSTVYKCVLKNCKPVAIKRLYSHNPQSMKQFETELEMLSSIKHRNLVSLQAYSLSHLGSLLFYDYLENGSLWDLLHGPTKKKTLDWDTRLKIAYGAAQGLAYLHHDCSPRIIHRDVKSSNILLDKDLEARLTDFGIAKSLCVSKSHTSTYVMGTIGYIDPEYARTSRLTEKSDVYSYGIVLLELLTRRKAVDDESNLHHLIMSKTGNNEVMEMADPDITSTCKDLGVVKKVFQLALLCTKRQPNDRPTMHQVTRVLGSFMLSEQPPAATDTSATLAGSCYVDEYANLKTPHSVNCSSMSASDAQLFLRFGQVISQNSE

[3] = target: T3, ERL2CD (cytoplasmic domain of ERL2), BiFC fusion (Arabidopsis) (UniProt Q6XAT2); test: split reporter
T3 sequence: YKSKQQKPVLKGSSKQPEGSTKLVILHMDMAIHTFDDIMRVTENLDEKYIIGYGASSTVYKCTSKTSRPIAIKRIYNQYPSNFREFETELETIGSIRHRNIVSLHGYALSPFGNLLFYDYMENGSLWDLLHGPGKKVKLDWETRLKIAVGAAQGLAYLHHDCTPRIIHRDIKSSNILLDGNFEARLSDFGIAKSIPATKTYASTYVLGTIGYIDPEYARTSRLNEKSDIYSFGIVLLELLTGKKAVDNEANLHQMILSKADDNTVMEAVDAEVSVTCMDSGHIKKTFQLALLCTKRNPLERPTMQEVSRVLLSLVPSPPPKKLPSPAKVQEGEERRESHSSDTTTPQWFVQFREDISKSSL

[4] = target: T4, ERECTACD (cytoplasmic domain of ERECTA), yeast two-hybrid fusion (Arabidopsis) (UniProt Q42371); test: two-hybrid
T4 sequence: T2 sequence

[5] = target: T5, ERL2CD (cytoplasmic domain of ERL2), yeast two-hybrid fusion (Arabidopsis) (UniProt Q6XAT2); test: two-hybrid
T5 sequence: T3 sequence

[6] = target: T6, ERL1CD (cytoplasmic domain of ERECTA-LIKE 1), yeast two-hybrid fusion (Arabidopsis) (UniProt C0LGW6); test: two-hybrid
T6 sequence: T1 sequence

ERL2CD-GFP (Arabidopsis) = target: T7, ERL2CD-GFP (Arabidopsis) (UniProt Q6XAT2); test: co-IP
T7 sequence: T3 sequence

[7] = target: T8, ERECTACD-GFP (Arabidopsis) (UniProt Q42371); test: co-IP
T8 sequence: T2 sequence

ERL1CD-GFP (Arabidopsis) = target: T9, ERL1CD-GFP (Arabidopsis) (UniProt C0LGW6); test: co-IP
T9 sequence: T1 sequence

AP2σ-MBP (Arabidopsis) = test: pull-down

Molecule: AP2σ (adaptor protein 2 σ subunit), BiFC fusion (Arabidopsis)
- binding [1]: binds
- binding [2]: binds
- binding [3]: binds

- binding [4]: binds
- binding [5]: binds
- binding [6]: binds
Molecule: AP2σ (adaptor protein 2 σ subunit), yeast two-hybrid fusion (Arabidopsis)

- binding (ERL2CD-GFP (Arabidopsis)): binds
- binding [7]: binds
- binding (ERL1CD-GFP (Arabidopsis)): binds
Molecule: AP2σ-RFP (Arabidopsis)

- binding (AP2σ-MBP (Arabidopsis)): binds
B1: ERL2CD-GST (domain or fragment, UniProt Q6XAT2 607-967)
chain: T3 sequence

- binding (AP2σ-MBP (Arabidopsis)): binds
B2: ERECTACD-GST (domain or fragment, UniProt Q42371 602-976)
chain: T2 sequence

- binding (AP2σ-MBP (Arabidopsis)): binds
B3: ERL1CD-GST (domain or fragment, UniProt C0LGW6 604-966)
chain: T1 sequence

No constants are given. Whether binding was seen depends on the method and setting. A result given as binding can be weak or reduced; the word gives no strength. Sequences can lack the tags named with a protein. For part of these data: In cells and extracts the contact can be indirect. One block for each molecule: values may come before it.
